Measurements: the supplement of paper PMC10849652
This is one part of the list.

The chains behind the UniProt entries cited, without tags or fusion partners. Where a name states a change or a piece, a line headed by the entry shows the natural chain unless it says otherwise.
UniProt Q9BTM9: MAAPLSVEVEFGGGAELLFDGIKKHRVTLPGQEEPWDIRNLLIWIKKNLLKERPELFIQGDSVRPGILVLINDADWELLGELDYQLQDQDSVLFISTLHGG
UniProt P10746: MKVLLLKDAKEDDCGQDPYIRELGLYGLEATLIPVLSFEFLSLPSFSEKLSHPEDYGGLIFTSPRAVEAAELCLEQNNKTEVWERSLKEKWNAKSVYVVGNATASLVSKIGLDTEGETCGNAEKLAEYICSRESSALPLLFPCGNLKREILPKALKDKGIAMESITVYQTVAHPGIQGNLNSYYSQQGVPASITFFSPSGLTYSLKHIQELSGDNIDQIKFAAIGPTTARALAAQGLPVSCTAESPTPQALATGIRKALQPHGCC
UniProt Q9BRT2: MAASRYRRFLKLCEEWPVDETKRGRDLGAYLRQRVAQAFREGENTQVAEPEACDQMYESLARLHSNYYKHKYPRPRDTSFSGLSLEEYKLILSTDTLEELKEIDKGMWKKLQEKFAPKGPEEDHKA
UniProt Q92995: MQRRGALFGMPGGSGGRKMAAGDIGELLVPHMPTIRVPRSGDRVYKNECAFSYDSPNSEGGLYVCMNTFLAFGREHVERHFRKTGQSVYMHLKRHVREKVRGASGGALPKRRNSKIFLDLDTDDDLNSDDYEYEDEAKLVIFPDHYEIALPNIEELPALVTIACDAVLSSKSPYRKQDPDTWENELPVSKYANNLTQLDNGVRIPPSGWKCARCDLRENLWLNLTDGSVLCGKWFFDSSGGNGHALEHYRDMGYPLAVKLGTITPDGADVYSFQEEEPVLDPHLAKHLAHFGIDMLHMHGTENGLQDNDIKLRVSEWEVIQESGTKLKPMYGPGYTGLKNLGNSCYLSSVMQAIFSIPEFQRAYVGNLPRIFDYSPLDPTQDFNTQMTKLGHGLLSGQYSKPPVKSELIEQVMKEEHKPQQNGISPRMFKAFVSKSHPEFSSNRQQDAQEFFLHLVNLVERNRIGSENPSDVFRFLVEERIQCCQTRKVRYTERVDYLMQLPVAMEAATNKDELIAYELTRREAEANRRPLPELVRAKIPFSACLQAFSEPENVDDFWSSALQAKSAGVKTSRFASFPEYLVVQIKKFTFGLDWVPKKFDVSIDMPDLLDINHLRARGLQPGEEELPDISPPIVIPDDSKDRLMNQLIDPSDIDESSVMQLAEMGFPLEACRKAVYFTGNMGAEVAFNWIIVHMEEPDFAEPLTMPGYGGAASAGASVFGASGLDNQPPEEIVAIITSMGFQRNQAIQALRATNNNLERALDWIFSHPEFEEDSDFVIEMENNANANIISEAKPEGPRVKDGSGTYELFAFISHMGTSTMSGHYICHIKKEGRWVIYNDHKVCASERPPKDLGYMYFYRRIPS
UniProt Q86UV5: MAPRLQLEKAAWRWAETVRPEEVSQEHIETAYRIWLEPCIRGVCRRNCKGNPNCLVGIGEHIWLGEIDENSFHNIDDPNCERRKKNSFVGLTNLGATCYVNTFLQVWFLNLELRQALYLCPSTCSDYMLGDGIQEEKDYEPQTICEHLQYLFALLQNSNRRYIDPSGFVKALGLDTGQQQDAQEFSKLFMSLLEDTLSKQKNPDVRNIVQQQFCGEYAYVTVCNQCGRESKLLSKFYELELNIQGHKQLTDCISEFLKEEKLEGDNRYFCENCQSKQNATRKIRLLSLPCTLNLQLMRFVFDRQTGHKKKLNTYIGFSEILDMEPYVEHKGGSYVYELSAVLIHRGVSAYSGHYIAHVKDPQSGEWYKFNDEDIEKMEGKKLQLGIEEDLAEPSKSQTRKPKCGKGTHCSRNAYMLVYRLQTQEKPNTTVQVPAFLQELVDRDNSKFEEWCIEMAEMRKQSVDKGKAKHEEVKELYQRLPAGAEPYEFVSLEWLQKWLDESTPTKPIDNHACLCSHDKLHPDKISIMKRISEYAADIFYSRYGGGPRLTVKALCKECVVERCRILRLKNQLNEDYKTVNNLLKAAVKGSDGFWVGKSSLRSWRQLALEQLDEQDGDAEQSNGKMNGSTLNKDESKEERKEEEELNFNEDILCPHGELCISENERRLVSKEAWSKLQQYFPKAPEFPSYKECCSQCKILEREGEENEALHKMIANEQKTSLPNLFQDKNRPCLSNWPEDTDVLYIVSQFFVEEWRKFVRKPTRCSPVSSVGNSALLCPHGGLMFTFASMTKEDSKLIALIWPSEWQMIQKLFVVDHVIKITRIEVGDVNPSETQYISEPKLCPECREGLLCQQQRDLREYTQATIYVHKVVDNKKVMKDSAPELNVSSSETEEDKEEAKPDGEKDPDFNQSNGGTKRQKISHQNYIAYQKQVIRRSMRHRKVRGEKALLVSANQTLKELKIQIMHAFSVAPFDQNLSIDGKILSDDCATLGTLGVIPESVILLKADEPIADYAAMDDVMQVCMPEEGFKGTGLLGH
UniProt Q9P0L0: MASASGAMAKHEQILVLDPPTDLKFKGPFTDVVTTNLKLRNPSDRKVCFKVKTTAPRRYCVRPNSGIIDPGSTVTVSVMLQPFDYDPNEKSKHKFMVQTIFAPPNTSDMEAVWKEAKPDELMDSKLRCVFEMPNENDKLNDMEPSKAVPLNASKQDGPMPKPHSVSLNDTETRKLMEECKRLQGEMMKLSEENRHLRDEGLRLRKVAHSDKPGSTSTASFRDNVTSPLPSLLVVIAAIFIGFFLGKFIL
UniProt O14957: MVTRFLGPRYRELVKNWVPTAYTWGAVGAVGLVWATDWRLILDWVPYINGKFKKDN
UniProt P15498: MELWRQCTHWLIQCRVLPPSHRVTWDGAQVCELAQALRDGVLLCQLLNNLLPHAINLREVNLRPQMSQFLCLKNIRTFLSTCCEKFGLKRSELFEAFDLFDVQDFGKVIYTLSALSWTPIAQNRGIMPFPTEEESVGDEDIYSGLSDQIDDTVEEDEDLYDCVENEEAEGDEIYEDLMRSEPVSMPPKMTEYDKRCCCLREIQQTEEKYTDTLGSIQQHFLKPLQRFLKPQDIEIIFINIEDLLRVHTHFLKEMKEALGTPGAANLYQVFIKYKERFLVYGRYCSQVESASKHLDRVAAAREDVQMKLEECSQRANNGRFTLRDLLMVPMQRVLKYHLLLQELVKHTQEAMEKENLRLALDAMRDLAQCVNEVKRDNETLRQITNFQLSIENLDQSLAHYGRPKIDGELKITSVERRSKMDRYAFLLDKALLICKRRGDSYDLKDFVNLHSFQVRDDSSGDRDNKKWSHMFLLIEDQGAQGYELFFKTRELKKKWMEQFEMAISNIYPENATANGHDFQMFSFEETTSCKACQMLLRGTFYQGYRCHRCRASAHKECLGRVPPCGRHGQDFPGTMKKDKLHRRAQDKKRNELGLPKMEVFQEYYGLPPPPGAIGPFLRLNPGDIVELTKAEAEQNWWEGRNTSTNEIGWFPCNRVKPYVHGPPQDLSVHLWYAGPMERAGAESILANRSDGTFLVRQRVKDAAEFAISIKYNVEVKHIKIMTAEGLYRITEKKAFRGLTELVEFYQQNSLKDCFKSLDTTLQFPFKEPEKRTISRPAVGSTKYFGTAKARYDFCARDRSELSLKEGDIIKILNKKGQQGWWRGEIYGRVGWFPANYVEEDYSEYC
UniProt Q9UDW1: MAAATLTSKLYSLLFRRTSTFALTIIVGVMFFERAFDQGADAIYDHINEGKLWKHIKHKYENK
UniProt O60287: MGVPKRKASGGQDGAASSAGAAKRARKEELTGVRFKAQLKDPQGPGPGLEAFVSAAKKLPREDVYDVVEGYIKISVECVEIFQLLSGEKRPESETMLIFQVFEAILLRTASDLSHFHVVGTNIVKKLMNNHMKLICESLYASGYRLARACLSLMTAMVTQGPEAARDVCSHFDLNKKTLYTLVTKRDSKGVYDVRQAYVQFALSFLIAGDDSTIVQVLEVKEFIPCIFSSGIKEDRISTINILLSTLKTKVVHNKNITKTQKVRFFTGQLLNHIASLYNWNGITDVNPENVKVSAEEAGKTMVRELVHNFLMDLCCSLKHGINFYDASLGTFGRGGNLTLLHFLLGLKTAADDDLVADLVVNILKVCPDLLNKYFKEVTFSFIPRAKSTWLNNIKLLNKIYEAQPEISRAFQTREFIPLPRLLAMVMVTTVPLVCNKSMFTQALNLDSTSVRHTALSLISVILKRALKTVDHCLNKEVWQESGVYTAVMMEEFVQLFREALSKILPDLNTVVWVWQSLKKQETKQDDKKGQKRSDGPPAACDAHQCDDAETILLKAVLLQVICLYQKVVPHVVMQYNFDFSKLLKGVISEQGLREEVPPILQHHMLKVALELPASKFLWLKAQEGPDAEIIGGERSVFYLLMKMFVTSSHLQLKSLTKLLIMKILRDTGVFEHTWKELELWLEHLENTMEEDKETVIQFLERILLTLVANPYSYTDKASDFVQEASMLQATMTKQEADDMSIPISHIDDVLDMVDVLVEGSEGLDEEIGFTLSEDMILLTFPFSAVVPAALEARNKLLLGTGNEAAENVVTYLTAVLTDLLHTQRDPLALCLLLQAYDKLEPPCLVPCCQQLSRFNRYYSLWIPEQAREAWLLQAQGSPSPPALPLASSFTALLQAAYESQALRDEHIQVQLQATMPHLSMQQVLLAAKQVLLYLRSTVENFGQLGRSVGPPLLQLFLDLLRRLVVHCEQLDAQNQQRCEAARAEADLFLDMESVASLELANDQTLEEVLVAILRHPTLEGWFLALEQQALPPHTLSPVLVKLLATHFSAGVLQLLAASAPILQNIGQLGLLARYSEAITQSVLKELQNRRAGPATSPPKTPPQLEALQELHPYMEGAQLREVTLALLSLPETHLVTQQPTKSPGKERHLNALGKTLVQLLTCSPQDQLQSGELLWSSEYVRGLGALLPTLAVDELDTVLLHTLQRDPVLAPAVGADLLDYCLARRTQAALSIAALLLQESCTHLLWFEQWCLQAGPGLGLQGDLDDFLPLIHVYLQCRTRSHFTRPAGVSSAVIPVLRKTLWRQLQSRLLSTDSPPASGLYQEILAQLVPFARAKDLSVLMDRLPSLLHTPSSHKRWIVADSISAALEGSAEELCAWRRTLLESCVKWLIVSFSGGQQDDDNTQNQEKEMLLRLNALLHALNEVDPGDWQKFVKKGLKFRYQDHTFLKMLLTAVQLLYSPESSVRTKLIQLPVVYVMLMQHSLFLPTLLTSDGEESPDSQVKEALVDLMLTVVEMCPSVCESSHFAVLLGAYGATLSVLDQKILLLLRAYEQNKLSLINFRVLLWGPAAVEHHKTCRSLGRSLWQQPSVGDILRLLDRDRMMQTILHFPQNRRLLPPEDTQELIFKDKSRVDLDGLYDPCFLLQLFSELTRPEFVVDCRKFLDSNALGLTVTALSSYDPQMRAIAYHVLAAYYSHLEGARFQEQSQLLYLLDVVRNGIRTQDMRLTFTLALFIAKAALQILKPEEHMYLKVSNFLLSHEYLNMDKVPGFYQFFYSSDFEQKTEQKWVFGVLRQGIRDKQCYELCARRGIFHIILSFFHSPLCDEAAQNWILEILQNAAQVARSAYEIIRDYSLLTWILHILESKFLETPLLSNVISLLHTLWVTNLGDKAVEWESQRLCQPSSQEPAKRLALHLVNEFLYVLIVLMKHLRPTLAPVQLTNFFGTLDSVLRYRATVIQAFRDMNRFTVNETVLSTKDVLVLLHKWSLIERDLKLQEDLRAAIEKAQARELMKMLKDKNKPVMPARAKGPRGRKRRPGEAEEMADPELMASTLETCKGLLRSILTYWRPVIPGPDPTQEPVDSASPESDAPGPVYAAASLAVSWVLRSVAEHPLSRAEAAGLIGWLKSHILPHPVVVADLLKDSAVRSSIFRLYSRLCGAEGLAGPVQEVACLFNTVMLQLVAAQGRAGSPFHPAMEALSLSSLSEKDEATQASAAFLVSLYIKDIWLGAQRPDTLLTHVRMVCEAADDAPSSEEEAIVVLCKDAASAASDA
UniProt P15692, whole entry, looked up: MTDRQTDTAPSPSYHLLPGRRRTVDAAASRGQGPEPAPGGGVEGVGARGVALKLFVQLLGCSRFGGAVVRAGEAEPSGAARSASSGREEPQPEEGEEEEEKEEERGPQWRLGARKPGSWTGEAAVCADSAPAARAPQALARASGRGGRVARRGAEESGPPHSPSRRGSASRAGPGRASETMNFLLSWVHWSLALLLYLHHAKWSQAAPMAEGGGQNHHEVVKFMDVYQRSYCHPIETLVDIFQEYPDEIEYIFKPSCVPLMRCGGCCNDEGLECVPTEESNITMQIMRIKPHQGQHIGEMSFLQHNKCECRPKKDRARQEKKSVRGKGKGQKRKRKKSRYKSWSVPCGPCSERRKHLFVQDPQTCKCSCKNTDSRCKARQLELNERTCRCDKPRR
UniProt Q9Y3C8: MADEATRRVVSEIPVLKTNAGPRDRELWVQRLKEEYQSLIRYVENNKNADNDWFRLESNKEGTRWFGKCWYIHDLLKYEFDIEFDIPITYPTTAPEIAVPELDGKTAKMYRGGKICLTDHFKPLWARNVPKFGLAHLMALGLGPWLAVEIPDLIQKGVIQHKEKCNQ
UniProt Q15836, whole entry, looked up: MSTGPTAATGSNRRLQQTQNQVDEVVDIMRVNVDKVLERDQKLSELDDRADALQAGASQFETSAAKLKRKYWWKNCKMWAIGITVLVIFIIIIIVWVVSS

Key:
Test in all cases: log2 fold change, soluble protein after heating vs DMSO (PISA); higher = thermal stabilisation; K562 lysate, 10 uM; active = over 0.2 and 3.5 SD of the protein, either way, in both replicates (recomputed)
alvocidib = compound: CN1CC[C@H](c2c(O)cc(O)c3c(=O)cc(-c4ccccc4Cl)oc23)[C@H](O)C1 [alvocidib]
Outline: (§1)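 Soluble protein was defined as the supernatant remaining after 21,000xg for 90 min, following pooling of heated aliquots and adjustment to 0.5% NP-40 at 4°C. Before that, crude K562 extract at 1 mg/mL protein in PBS pH 7.4 with 1 mM MgCl2 was treated with 10 μM compound for 30 min and heated for 3 min across 48°C-58°C. Quantification used TMTpro 16plex LC-MS/MS with channel sums equalised, and values are log-two fold changes in thermal stability relative to solvent controls from duplicates.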

Tubastatin A = compound: CN1CCc2c(c3ccccc3n2Cc2ccc(C(=O)NO)cc2)C1 [Tubastatin A]
Outline: as §1

[1] = compound: CNC(=O)C1=CC=CC=C1NC2=NC(=NC=C2Cl)NC3=C(C=C(C=C3)N4CCOCC4)OC
Outline: as §1

defactinib = compound: CNC(=O)c1ccc(Nc2ncc(C(F)(F)F)c(NCc3nccnc3N(C)S(C)(=O)=O)n2)cc1 [defactinib]
Outline: as §1

[2] = compound: CNc1nc(-c2ccc3c(N)n[nH]c3c2)cc(N2C[C@@H](C(=O)NC3CCCCC3)CC[C@H]2C)n1
Outline: as §1

encorafenib = compound: COC(=O)N[C@@H](C)CNc1nccc(-c2cn(C(C)C)nc2-c2cc(Cl)cc(NS(C)(=O)=O)c2F)n1 [encorafenib]
Outline: as §1

[3] = compound: COC(=O)[C@H](CCSC)NC(=O)C1=C(C=C(C=C1)NC[C@H](CS)N)C2=CC=CC=C2
Outline: as §1

alisertib = compound: COc1cc(Nc2ncc3c(n2)-c2ccc(Cl)cc2C(c2c(F)cccc2OC)=NC3)ccc1C(=O)O [alisertib]
Outline: as §1

[4] = compound: COc1cc2nc(-c3cc(F)ccc3O)nc(N[C@@H]3CNC[C@H]3C(C)(C)O)c2cc1OC
Outline: as §1

gefitinib = compound: COc1cc2ncnc(Nc3ccc(F)c(Cl)c3)c2cc1OCCCN1CCOCC1 [gefitinib]
Outline: as §1

Measured: log2 fold change

URM1 isoform 2 (UniProt Q9BTM9)
inactive: alvocidib 0.081 | Tubastatin A 0.062 | [1] 0.033 | defactinib 0.121 | [2] -0.212 | encorafenib -0.091 | [3] -0.299 | alisertib -0.03 | [4] 0.041 | gefitinib 0.007

UNK (UniProt Q9C0B0)
inactive: alvocidib -0.096 | Tubastatin A 0.047 | [1] 0.008 | defactinib -0.007 | [2] -0.014 | encorafenib 0.004 | [3] -0.04 | alisertib 0 | [4] 0.004 | gefitinib -0.011

USP28 isoform 2 (UniProt Q96RU2)
inactive: alvocidib -0.001 | Tubastatin A -0.145 | [1] -0.011 | defactinib 0.003 | [2] -0.036 | encorafenib -0.004 | [3] -0.012 | alisertib 0.017 | [4] -0.022 | gefitinib -0.003

USP10 isoform 2 (UniProt Q14694)
inactive: alvocidib 0.006 | Tubastatin A -0.118 | [1] 0.015 | defactinib 0.017 | [2] 0.021 | encorafenib 0.019 | [3] 0.04 | alisertib 0.012 | [4] -0.009 | gefitinib -0.018

USP25 (UniProt Q9UHP3)
inactive: alvocidib 0.004 | Tubastatin A -0.031 | [1] -0.017 | defactinib -0.018 | [2] -0.087 | encorafenib 0.012 | [3] 0.014 | alisertib -0.006 | [4] 0.018 | gefitinib 0.002

USP9X (UniProt Q93008)
inactive: alvocidib -0.009 | Tubastatin A -0.114 | [1] 0.016 | defactinib 0.026 | [2] -0.04 | encorafenib 0.007 | [3] 0.023 | alisertib 0.016 | [4] 0.013 | gefitinib 0.002

UNC5B (UniProt Q8IZJ1)
inactive: alvocidib 0.036 | Tubastatin A 0.005 | [1] 0 | defactinib -0.01 | [2] -0.013 | encorafenib 0.045 | [3] -0.023 | alisertib 0.06 | [4] -0.068 | gefitinib -0.103

USP3 (UniProt Q9Y6I4)
inactive: alvocidib 0.002 | Tubastatin A -0.154 | [1] -0.046 | defactinib 0.013 | [2] -0.024 | encorafenib 0.03 | [3] 0.022 | alisertib -0.008 | [4] 0.028 | gefitinib -0.005

UROS (UniProt P10746)
inactive: alvocidib -0.01 | Tubastatin A -0.008 | [1] -0.019 | defactinib 0.022 | [2] -0.085 | encorafenib 0.014 | [3] -0.074 | alisertib -0.071 | [4] -0.027 | gefitinib -0.094

UQCC2 (UniProt Q9BRT2)
inactive: alvocidib 0.079 | Tubastatin A 0.05 | [1] -0.027 | defactinib 0 | [2] 0.006 | encorafenib 0.021 | [3] -0.025 | alisertib 0.029 | [4] 0.017 | gefitinib -0.059

Random excerpt: 2 records from the list
UNK (UniProt Q9C0B0)
inactive: alvocidib -0.096 | Tubastatin A 0.047 | [1] 0.008 | defactinib -0.007 | [2] -0.014 | encorafenib 0.004 | [3] -0.04 | alisertib 0 | [4] 0.004 | gefitinib -0.011

USP9X (UniProt Q93008)
inactive: alvocidib -0.009 | Tubastatin A -0.114 | [1] 0.016 | defactinib 0.026 | [2] -0.04 | encorafenib 0.007 | [3] 0.023 | alisertib 0.016 | [4] 0.013 | gefitinib 0.002

Additional records follow:

UTP20 (UniProt O75691)
inactive: alvocidib -0.045 | Tubastatin A -0.046 | [1] 0.007 | defactinib 0.053 | [2] -0.026 | encorafenib 0.056 | [3] 0.059 | alisertib -0.059 | [4] 0.01 | gefitinib -0.096

VCPIP1 (UniProt Q96JH7)
inactive: alvocidib -0.049 | Tubastatin A -0.026 | [1] -0.01 | defactinib 0.022 | [2] 0.113 | encorafenib 0.005 | [3] 0.141 | alisertib 0.003 | [4] -0.006 | gefitinib -0.04

UHRF1BP1 (UniProt Q6BDS2)
inactive: alvocidib -0.067 | Tubastatin A -0.009 | [1] 0 | defactinib 0.008 | [2] 0.018 | encorafenib 0.112 | [3] -0.159 | alisertib 0.019 | [4] 0.05 | gefitinib -0.002

VEGFA (UniProt H0YBI8)
inactive: alvocidib -0.08

USP13 (UniProt Q92995)
inactive: alvocidib 0.008 | Tubastatin A 0.085 | [1] 0.016 | defactinib 0.029 | [2] 0.087 | encorafenib 0.002 | [3] -0.02 | alisertib -0.047 | [4] -0.025 | gefitinib -0.004

USP4 (UniProt Q13107)
inactive: alvocidib 0.031 | Tubastatin A -0.091 | [1] 0.059 | defactinib 0.013 | [2] -0.011 | encorafenib -0.046 | [3] 0.076 | alisertib 0.031 | [4] 0.016 | gefitinib -0.023

USP48 (UniProt Q86UV5)
inactive: alvocidib -0.193 | Tubastatin A -0.069 | [1] 0.123 | defactinib 0.024 | [2] 0.054 | encorafenib -0.016 | [3] 0.018 | alisertib -0.015 | [4] 0.09 | gefitinib -0.069

VAPA (UniProt Q9P0L0)
inactive: alvocidib 0.068 | Tubastatin A 0.028 | [1] -0.048 | defactinib 0.021 | [2] -0.087 | encorafenib -0.022 | [3] -0.228 | alisertib -0.07 | [4] -0.005 | gefitinib -0.025

UQCR11 (UniProt O14957)
inactive: alvocidib 0.006 | Tubastatin A -0.029 | [1] 0.006 | defactinib 0.177 | [2] 0.116 | encorafenib 0.044 | [3] 0.076 | alisertib 0.011 | [4] -0.041 | gefitinib -0.172

VAV1 (UniProt P15498)
inactive: alvocidib 0.005 | Tubastatin A -0.117 | [1] -0.028 | defactinib 0.018 | [2] 0.007 | encorafenib -0.026 | [3] 0.025 | alisertib -0.006 | [4] -0.044 | gefitinib 0.024

UQCR10 (UniProt Q9UDW1)
inactive: alvocidib -0.004 | Tubastatin A -0.062 | [1] -0.016 | defactinib 0.08 | [2] 0.039 | encorafenib 0.051 | [3] -0.057 | alisertib -0.024 | [4] 0.019 | gefitinib -0.016

UNC45A (UniProt Q9H3U1)
inactive: alvocidib -0.017 | Tubastatin A -0.146 | [1] 0 | defactinib 0.018 | [2] -0.011 | encorafenib -0.003 | [3] 0.044 | alisertib 0.006 | [4] 0.001 | gefitinib -0.02

URB1 (UniProt O60287)
inactive: alvocidib -0.195 | Tubastatin A -0.068 | [1] 0.069 | defactinib -0.051 | [2] 0.034 | encorafenib 0.04 | [3] -0.071 | alisertib 0.07 | [4] -0.276 | gefitinib -0.081

VEGFA isoform 14 (UniProt P15692)
inactive: alvocidib 0.015

ULBP1 (UniProt Q9BZM6)
inactive: alvocidib -0.045 | Tubastatin A 0.004 | [1] 0.04 | defactinib -0.052 | [2] 0.088 | encorafenib 0.033 | [3] -0.02 | alisertib 0.049 | [4] 0.012 | gefitinib -0.046

USO1 (UniProt O60763)
inactive: alvocidib 0.019 | Tubastatin A 0.103 | [1] 0.087 | defactinib -0.028 | [2] 0.203 | encorafenib -0.144 | [3] -0.125 | alisertib 0.035 | [4] -0.095 | gefitinib -0.153

USP34 (UniProt Q70CQ2)
inactive: alvocidib 0.035 | Tubastatin A -0.045 | [1] 0.009 | defactinib 0.006 | [2] -0.014 | encorafenib 0.033 | [3] 0.09 | alisertib 0 | [4] 0.017 | gefitinib 0.013

UFC1 (UniProt Q9Y3C8)
inactive: alvocidib 0.008 | Tubastatin A 0.058 | [1] -0.05 | defactinib -0.057 | [2] -0.016 | encorafenib -0.057 | [3] 0.033 | alisertib 0.007 | [4] 0.006 | gefitinib -0.005

UGDH (UniProt O60701)
inactive: alvocidib 0.023 | Tubastatin A -0.151 | [1] 0.015 | defactinib 0.071 | [2] -0.132 | encorafenib 0.047 | [3] 0.037 | alisertib -0.025 | [4] -0.004 | gefitinib -0.042

UGP2 (UniProt Q16851)
inactive: alvocidib 0.027 | Tubastatin A 0.034 | [1] 0.009 | defactinib -0.004 | [2] 0.043 | encorafenib -0.013 | [3] -0.009 | alisertib 0.014 | [4] 0.009 | gefitinib 0.002

VAMP3 (UniProt Q15836)
inactive: alvocidib -0.044 | Tubastatin A 0.035 | [1] 0.041 | defactinib -0.006 | [2] -0.017 | encorafenib 0.025 | [3] -0.031 | alisertib -0.021 | [4] -0.01 | gefitinib -0.207
